Holding throughout (experiment): cryo-EM structure; human B^act spliceosome assembled on MS2-tagged MINX pre-mRNA in HeLa S3 nuclear extract, purified on amylose resin and a glycerol gradient with glutaraldehyde cross-linking; early (4.9 Å), mature (5.1 Å) and late (6.5 Å) states, SF3b region 4.2 Å; models built by homology modelling and docking of known structures
Test [1] deals with SF3b155 (human (endogenous in HeLa)) (UniProt O75533).
For test [2], the target named is SF3b145 (human (endogenous in HeLa)) (UniProt Q13435).
For test [3], the target named is T1, SNIP1 (human (endogenous in HeLa)) (UniProt Q8TAD8).
T1 sequence: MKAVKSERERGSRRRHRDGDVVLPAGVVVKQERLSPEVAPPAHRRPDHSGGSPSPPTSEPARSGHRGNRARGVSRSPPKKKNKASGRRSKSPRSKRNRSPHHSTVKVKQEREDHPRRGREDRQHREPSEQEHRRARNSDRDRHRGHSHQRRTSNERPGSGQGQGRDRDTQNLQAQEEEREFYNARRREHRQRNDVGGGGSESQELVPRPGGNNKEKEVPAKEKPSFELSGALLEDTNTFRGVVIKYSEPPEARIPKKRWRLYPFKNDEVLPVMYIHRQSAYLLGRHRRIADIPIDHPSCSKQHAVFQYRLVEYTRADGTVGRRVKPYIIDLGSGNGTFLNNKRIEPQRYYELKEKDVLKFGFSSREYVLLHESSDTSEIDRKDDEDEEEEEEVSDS

Amino acid sequences for entries named in this document (tags omitted).
UniProt O75533: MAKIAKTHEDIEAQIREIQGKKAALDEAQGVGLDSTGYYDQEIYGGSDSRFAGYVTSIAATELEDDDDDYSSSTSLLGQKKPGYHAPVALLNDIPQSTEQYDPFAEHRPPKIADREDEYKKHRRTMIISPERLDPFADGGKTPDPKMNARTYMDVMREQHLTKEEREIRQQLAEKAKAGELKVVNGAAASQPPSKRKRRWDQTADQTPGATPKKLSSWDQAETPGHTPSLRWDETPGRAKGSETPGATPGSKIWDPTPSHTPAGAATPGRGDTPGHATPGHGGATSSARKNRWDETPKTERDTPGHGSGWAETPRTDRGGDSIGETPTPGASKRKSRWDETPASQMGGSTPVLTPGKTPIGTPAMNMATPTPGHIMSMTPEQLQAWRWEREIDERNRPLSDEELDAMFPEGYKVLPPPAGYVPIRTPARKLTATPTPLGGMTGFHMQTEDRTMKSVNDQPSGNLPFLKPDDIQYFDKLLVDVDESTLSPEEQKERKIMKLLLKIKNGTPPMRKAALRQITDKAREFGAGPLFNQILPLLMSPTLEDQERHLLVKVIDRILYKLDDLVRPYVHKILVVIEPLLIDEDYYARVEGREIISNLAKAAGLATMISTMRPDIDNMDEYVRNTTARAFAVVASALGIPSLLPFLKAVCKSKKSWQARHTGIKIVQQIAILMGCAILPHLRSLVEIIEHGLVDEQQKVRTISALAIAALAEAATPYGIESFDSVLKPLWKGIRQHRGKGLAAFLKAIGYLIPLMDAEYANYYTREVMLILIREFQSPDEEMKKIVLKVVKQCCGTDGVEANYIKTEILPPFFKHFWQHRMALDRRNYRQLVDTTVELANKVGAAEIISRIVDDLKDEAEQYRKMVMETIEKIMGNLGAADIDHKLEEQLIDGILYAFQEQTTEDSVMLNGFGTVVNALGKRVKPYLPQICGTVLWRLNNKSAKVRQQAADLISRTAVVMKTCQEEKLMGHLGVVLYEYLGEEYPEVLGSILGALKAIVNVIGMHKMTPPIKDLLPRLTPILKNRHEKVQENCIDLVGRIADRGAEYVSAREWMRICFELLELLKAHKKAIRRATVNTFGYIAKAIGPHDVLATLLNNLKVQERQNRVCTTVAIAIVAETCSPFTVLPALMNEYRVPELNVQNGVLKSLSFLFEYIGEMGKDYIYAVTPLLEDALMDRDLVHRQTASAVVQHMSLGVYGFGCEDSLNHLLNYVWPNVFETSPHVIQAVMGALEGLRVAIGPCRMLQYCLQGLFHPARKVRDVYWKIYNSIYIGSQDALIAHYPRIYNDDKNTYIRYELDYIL
UniProt Q13435: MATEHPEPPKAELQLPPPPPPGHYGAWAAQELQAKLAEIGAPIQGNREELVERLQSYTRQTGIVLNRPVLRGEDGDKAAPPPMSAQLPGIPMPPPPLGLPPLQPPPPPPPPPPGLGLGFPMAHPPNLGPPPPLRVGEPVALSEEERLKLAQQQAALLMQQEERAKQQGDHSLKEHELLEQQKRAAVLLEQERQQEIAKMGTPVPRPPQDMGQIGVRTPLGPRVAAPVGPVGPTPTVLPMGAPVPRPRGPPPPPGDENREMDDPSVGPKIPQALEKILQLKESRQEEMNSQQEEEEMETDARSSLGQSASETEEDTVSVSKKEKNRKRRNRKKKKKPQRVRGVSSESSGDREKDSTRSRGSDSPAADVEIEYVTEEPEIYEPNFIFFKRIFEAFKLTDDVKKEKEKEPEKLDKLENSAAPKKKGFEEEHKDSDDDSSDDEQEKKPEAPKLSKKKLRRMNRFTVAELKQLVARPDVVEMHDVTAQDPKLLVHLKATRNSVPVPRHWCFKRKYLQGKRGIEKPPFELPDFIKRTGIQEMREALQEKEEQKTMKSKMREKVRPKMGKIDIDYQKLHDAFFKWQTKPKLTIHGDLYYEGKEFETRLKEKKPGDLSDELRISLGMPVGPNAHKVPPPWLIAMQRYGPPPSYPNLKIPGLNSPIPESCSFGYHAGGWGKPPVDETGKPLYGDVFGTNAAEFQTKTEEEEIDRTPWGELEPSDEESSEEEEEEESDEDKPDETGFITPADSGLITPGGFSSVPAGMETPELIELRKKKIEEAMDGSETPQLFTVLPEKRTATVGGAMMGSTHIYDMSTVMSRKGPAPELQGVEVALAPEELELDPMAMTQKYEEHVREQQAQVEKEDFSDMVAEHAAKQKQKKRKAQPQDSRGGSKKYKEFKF
UniProt Q15393: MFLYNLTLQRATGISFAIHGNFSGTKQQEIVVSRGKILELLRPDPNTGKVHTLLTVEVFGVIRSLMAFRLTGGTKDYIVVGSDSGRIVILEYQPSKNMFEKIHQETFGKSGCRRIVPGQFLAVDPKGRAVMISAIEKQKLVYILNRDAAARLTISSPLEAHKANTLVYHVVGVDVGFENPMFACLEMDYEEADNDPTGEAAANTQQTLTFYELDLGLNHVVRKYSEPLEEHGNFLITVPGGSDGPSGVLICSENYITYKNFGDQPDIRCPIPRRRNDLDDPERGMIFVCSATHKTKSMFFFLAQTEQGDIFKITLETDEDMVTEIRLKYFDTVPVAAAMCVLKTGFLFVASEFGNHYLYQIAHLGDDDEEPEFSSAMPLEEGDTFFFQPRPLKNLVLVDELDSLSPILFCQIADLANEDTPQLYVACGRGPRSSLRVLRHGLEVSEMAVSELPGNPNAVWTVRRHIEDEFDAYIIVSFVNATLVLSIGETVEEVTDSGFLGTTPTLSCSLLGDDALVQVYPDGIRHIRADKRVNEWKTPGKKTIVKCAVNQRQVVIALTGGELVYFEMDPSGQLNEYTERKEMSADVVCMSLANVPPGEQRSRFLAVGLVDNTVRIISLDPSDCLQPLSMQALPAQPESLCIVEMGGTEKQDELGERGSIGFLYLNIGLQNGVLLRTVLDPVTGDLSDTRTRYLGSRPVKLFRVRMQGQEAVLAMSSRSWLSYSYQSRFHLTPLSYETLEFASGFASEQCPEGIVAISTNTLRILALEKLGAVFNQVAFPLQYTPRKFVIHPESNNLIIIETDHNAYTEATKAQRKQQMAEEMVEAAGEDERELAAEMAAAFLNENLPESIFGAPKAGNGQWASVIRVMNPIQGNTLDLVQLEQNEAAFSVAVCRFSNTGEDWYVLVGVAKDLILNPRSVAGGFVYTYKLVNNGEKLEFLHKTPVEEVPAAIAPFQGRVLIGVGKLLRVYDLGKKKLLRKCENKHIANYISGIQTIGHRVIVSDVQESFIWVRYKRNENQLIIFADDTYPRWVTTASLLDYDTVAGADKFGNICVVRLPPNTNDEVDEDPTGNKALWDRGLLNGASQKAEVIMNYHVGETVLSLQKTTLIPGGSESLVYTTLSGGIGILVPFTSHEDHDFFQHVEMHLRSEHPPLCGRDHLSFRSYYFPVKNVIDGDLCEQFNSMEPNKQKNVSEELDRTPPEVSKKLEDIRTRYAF

Test [4] deals with T2, SKIP (human (endogenous in HeLa)) (UniProt Q13573).
T2 sequence: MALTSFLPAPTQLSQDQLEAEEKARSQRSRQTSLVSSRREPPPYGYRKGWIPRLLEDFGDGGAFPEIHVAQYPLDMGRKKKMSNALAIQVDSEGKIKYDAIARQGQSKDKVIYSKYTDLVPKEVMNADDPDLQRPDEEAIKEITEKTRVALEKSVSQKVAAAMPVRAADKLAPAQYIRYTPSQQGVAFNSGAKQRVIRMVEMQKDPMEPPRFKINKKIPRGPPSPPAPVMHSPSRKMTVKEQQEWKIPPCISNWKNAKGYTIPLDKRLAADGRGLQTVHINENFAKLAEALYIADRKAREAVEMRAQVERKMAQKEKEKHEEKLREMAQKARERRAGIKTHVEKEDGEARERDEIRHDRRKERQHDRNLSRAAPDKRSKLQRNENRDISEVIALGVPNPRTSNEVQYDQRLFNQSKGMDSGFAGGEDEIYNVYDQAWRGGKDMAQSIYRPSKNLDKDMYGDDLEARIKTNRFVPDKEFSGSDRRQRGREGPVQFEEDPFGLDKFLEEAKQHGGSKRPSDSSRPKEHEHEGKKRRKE

For test [5], the target named is Prp8 (human (endogenous in HeLa)) (UniProt Q6P2Q9).

These are yes or no findings as the source states them, for the method shown. Some results given as binding are weak or reduced against the parent protein; the word gives no strength.

With SF3b130 (from UniProt Q15393 1-1217), the binding result in test [1] and in test [2] was “binds” each time.
Turning to SF3b145 (from UniProt Q13435 1-895), the binding entry in test [1] is “binds”.
Take SF3b155 (from UniProt O75533 1-1304): the binding result in test [3] and in test [4] was “binds” in each case.

B1: NY-CO-10 (protein, UniProt Q6UX04 1-472)
chain: MSNIYIQEPPTNGKVLLKTTAGDIDIELWSKEAPKACRNFIQLCLEAYYDNTIFHRVVPGFIVQGGDPTGTGSGGESIYGAPFKDEFHSRLRFNRRGLVAMANAGSHDNGSQFFFTLGRADELNNKHTIFGKVTGDTVYNMLRLSEVDIDDDERPHNPHKIKSCEVLFNPFDDIIPREIKRLKKEKPEEEVKKLKPKGTKNFSLLSFGEEAEEEEEEVNRVSQSMKGKSKSSHDLLKDDPHLSSVPVVESEKGDAPDLVDDGEDESAEHDEYIDGDEKNLMRERIAKKLKKDTSANVKSAGEGEVEKKSVSRSEELRKEARQLKRELLAAKQKKVENAAKQAEKRSEEEEAPPDGAVAEYRREKQKYEALRKQQSKKGTSREDQTLALLNQFKSKLTQAIAETPENDIPETEVEDDEGWMSHVLQFEDKSRKVKDASMQDSDTFEIYDPRNPVNKRRREESKKLMREKKERR
Turning to B1, in test [5], the binding result is reported as “binds”.

B2: Bud13 (protein, UniProt Q9BRD0 1-619)
chain: MAAAPPLSKAEYLKRYLSGADAGVDRGSESGRKRRKKRPKPGGAGGKGMRIVDDDVSWTAISTTKLEKEEEEDDGDLPVVAEFVDERPEEVKQMEAFRSSAKWKLLGGHNEDLPSNRHFRHDTPDSSPRRVRHGTPDPSPRKDRHDTPDPSPRRARHDTPDPSPLRGARHDSDTSPPRRIRHDSSDTSPPRRARHDSPDPSPPRRPQHNSSGASPRRVRHDSPDPSPPRRARHGSSDISSPRRVHNNSPDTSRRTLGSSDTQQLRRARHDSPDLAPNVTYSLPRTKSGKAPERASSKTSPHWKESGASHLSFPKNSKYEYDPDISPPRKKQAKSHFGDKKQLDSKGDCQKATDSDLSSPRHKQSPGHQDSDSDLSPPRNRPRHRSSDSDLSPPRRRQRTKSSDSDLSPPRRSQPPGKKAAHMYSGAKTGLVLTDIQREQQELKEQDQETMAFEAEFQYAETVFRDKSGRKRNLKLERLEQRRKAEKDSERDELYAQWGKGLAQSRQQQQNVEDAMKEMQKPLARYIDDEDLDRMLREQEREGDPMANFIKKNKAKENKNKKVRPRYSGPAPPPNRFNIWPGYRWDGVDRSNGFEQKRFARLASKKAVEELAYKWSVEDM
For the molecule B2, in test [5], the binding result is “binds”.

Values taken from paper PMC5835773.
